According to PubChem BioAssay AID504834 (National Center for Advancing Translational Sciences (NCATS), 2011):
Among all 320,000 compounds or so, about 22,000 (6.9%) were called active. This list was built around the results that the source calls inconclusive (neither active nor inactive); the mix of calls is not that of the screen. The call rests on the fitted dose curve; in most records, active means well fitted inhibition curve with a large enough effect; inconclusive means small, poorly fitted or top-dose-only effect, or another doubt; inactive means no such curve, though single readings can be large or run the other way. Potencies beside an inconclusive call are fits to weak or partial responses and may not hold up.

Experiment: Primary qHTS for delayed death inhibitors of the malarial parasite plastid, 96 hour incubation
Settings: P. falciparum luciferase reporter growth; series mostly up to 28.7 µM
Outline: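 Erythrocytes infected with luciferase-expressing P. falciparum were dispensed at 2% hematocrit and 0.05% parasitemia (final), then incubated with compounds 96 hours at 37 C in 5% CO2. Luminescence after detection reagent addition reported growth.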
Potency means the concentration at half of the fitted maximal effect.

| Structure (SMILES) | Potency |
| --- | --- |
| CN(C)c1nc2ncn(Cc3ccccc3)c2c(=O)[nH]1 | inconclusive: 11.7 µM [inhibitor, single point] |
| CCN(Cc1ccccc1)C(=O)c1ccc(C(=O)N(CC)Cc2ccccc2)cc1 | inconclusive: 14.7 µM [inhibitor, single point] |
| O=C(CNC(c1ccccc1)c1ccccc1)Nc1ccccc1F | inconclusive: 14.7 µM [inhibitor, partial curve, poor fit] |
| COc1cccc(C(=O)/C=C/Nc2ccc(S(=O)(=O)Nc3cnc4ccccc4n3)cc2)c1 | inactive |
| O=C(O)C1CCCN(S(=O)(=O)c2ccccc2)C1 (stereo not drawn) | inconclusive: 4.15 µM [inhibitor, single point] |
| O=C1Nc2ccc(S(=O)(=O)N3CCCC3)c3ccc(S(=O)(=O)N4CCCC4)c1c23 | inactive |
| CC(/C=C/c1ccccc1)=N\NC(=O)c1ccc2c(c1)OCCO2 | inconclusive: 11.7 µM [inhibitor, single point] |
| CCCNC(=O)CCc1c(C)nc2c(c(C)nn2-c2ccc(C)cc2)c1C | inconclusive: 10.4 µM [inhibitor, single point] |
| O=C(c1cc(S(=O)(=O)N2CCC3(CC2)OCCO3)ccc1F)N1CCC2(CC1)OCCO2 | inconclusive: 0.928 µM [inhibitor, full curve, poor fit] |
| COc1ccc(CC2S/C(=N/N=C/c3ccc(O)cc3)NC2=O)cc1 (stereo not drawn) | inactive |
| COC(=O)CN(c1nc(C)c(Br)c(OC)n1)S(=O)(=O)c1ccccc1 | inactive |
| O=C(NC1CCCCC1)N1CCC(n2c(=O)[nH]c3ccccc32)CC1 | inconclusive: 18.5 µM [inhibitor, single point] |
| CC(=O)Nc1ccc(S(=O)(=O)N2CCC(C(=O)NC3CC3)CC2)cc1 | inconclusive: 18.5 µM [inhibitor, single point] |
| O=C(O)CN1C(=O)/C(=C/c2ccc(N3CCCCC3)o2)SC1=S | inactive |
| Cc1ccc(N=C2NC(=O)/C(=C/C=C/c3ccco3)S2)cc1C | inconclusive: 2.62 µM [inhibitor, single point] |
| Cc1cc(C)c(S(N)(=O)=O)c(C)c1N(C)S(=O)(=O)c1ccc(Cl)cc1 | inconclusive: 8.28 µM [inhibitor, partial curve] |
| OC(c1ccc(Cl)cc1)c1nccc2ccccc12 (stereo not drawn) | inconclusive: 18.5 µM [inhibitor, single point] |
| O=C(NCCc1ccc(Cl)cc1Cl)c1cc([N+](=O)[O-])c[nH]c1=O | inconclusive: 11.7 µM [inhibitor, single point] |
| COC(=O)c1c(NC(=O)CC2SCC(C(=O)OC)NC2=O)sc2c1CCCC2 (stereo not drawn) | inactive |
| CC1CCN(CC(=O)Nc2ccc(S(=O)(=O)N3CCC(C)CC3)cc2)CC1 | inconclusive: 16.5 µM [inhibitor, single point] |
| O=C(Nc1ccccc1)NC1CCCCC1 | inactive |
| Cc1sc(=NC(=O)c2ccco2)n(C)c1-c1ccc(Cl)cc1 | active: 10.4 µM |
| CCOC(=O)CN1CCC(c2cc(-c3ccc(Cl)cc3)n[nH]2)CC1 | inconclusive: 14.7 µM [inhibitor, single point] |

| Structure (SMILES) | Potency |
| --- | --- |
| COc1cccc(CN2C(=O)C3(C(C#N)=C(N)OC4=C3C(=O)CCC4)c3ccccc32)c1 (stereo not drawn) | inactive |
| CC1(C)Cc2nc(-c3ccccc3)nc(SCC(O)CO)c2CO1 (stereo not drawn) | active: 10.4 µM |
| CC1=Nc2cc(C(=O)N3CCC4(CC3)OCCO4)ccc2Sc2ccc(Cl)cc21 | inconclusive: 18.5 µM [inhibitor, single point] |
| CN(C)c1cccc(C(=O)N2CCC(n3nccc3NC(=O)C3CCOC3)CC2)c1 (stereo not drawn) | inactive |
| Cc1cc(C)c(NC(=O)c2cnn(C)c2)c(C)c1 | inconclusive: 11.7 µM [inhibitor, partial curve, poor fit] |
| Cc1ccc(/C=C/C(=O)OCC(=O)NCc2ccccc2)o1 | inactive |
| COc1ccc(OC)c(Cc2nnc(CCC(=O)N3CCCCC3c3nccs3)o2)c1 (stereo not drawn) | inactive |
| C#CCOCCOCCOCCNc1nc(N2CCN(C(=O)[C@H](C)n3cc(CCCN=C(N)N)nn3)CC2)nc(N2CCN(C(=O)[C@H](CCCCN)n3cc(CCCC)nn3)CC2)n1 | active: 11.7 µM |
| O=C(CSc1ccc2nnc(-c3ccc(Cl)cc3)n2n1)N1CCc2ccccc21 | inactive |
| CCc1cc2c(=O)n(Cc3ccco3)c(SCC(=O)NC3CCS(=O)(=O)C3)nc2s1 (stereo not drawn) | inconclusive: 18.5 µM [inhibitor, single point] |
| Cc1cc(/C=C2/NC(=O)N(c3ccccc3)C2=O)c(C)n1-c1cccnc1 | inconclusive: 16.5 µM [inhibitor, single point] |
| C/C(=N\OCC(=O)Nc1ccc(F)c(F)c1F)c1cc2ccccc2o1 | inconclusive: 18.5 µM [inhibitor, single point] |
| CCCCCCCCc1nc(SCC(C)=O)n[nH]1 | inactive |
| CC(=O)N(c1ccc(N(C(C)=O)S(=O)(=O)c2cccs2)cc1)S(=O)(=O)c1cccs1 | inconclusive: 11.7 µM [inhibitor, single point] |
| O=C(Nc1cccc(C(=O)N2CCN(c3ccccc3)CC2)c1)c1ccco1 | inactive |
| COc1ccc(CN(C)C(=O)C2CC(=O)N(c3ccc4c(c3)OCCO4)C2)c(OC)c1 (stereo not drawn) | active: 6.57 µM |
| Cc1cccc(OCCNC(=O)CSc2ccc(C(F)(F)F)cc2[N+](=O)[O-])c1 | inactive |
| CC12CCC(=O)N1C(C(=O)NCCN1C(=O)S/C(=C\c3ccc(F)cc3)C1=O)CS2 (stereo not drawn) | inconclusive: 9.28 µM [inhibitor, single point] |
| CC(CN1c2ccccc2Sc2ccccc21)N(C)C (stereo not drawn) | inconclusive: 13.1 µM [inhibitor, single point] |
| O=C(NCCOc1ccccc1Cl)c1cccc2c1C(=O)c1ccc(Cl)cc1S2(=O)=O | inactive |
| COc1ccc(OC)c(Cc2nnc(CCC(=O)NC3CCCC3)o2)c1 | inconclusive: 14.7 µM [inhibitor, partial curve, poor fit] |
| CN(C)CCN(Cc1cccs1)S(=O)(=O)c1csc(C(N)=O)c1 | inconclusive: 18.5 µM [inhibitor, single point] |
| CCCn1c(C2CC(=O)N(c3ccc(C)cc3)C2)nc2ccccc21 (stereo not drawn) | inconclusive: 18.5 µM [inhibitor, single point] |

| Structure (SMILES) | Potency |
| --- | --- |
| COc1ccc(CNC(=O)C[C@H]2C(=O)N(C3CCCCC3)C[C@@H]2Cc2ccccc2)cc1 | active: 11.7 µM |
| COCCn1nnnc1C(C(C)C)N1CCN(C(=O)c2ccco2)CC1 (stereo not drawn) | inconclusive: 18.5 µM [inhibitor, single point] |
| Cc1ccc2cn[nH]c2c1NC(N)=S | inconclusive: 0.0657 µM [inhibitor, partial curve, poor fit] |
| COc1cc(Cl)c(C)cc1NC(=O)c1ccc(S(C)(=O)=O)cc1 | inactive |
| CNC1(c2nnnn2-c2c(C)cccc2C)CCOC(C)(C)C1 (stereo not drawn) | inactive |
| Cc1ccc(NC(=O)COC(=O)c2ccc([N+](=O)[O-])o2)cc1S(=O)(=O)N1CCCCCC1 | inconclusive: 5.22 µM [inhibitor, partial curve, poor fit] |
| CCN(CC)CCN(C)C(=O)CCc1nnc(-c2ccc(C)s2)o1 | inconclusive: 10.4 µM [inhibitor, single point] |
| CCOC(=O)C1=C(C)NC(C)=C(C(=O)OCC)C1C(=O)OCC(=O)N(C)C1CCS(=O)(=O)C1 (stereo not drawn) | inactive |
| COc1ccc(Nc2cc3n(c(=O)n2)CCc2cc(OC)c(OC)cc2-3)c(C)c1 | inconclusive: 6.57 µM [inhibitor, partial curve] |
| Cc1cc(-c2ccccc2)nc(N2CCC(C(=O)NC(C)C)CC2)n1 | inconclusive: 13.1 µM [inhibitor, single point] |
| COc1ccc(C(=O)O/N=C(\N)c2ccc(Cl)cc2)cc1 | inconclusive: 18.5 µM [inhibitor, single point] |
| CCCNC(=O)c1n[nH]c2c1CC(C(C)(C)CC)CC2 (stereo not drawn) | inconclusive: 18.5 µM [inhibitor, single point] |
| Cc1cc(=O)oc2c3c(cc(OCC(=O)NC(C)C)c12)OC(C)(C)CC3 | inconclusive: 11.7 µM [inhibitor, single point] |
| CC(=O)c1sc(NC(=O)CSCc2c(C)noc2C)nc1-c1ccccc1 | inconclusive: 4.65 µM [inhibitor, partial curve, poor fit] |
| CCN(CC)C(=O)CN(C#N)c1nc(Cl)nc(N(C)C)n1 | inconclusive: 4.15 µM [inhibitor, single point] |
| CC(=O)NC1CCCc2c1cnn2-c1ccc(C(C)(C)C)cc1 (stereo not drawn) | inconclusive: 5.86 µM [inhibitor, partial curve] |
| COc1ccc(-c2[nH]ncc2CN(C)Cc2cccnc2)c(OC)c1 | inconclusive: 9.28 µM [inhibitor, partial curve, poor fit] |
| CCOc1ccc(S(=O)(=O)NNC(=O)c2cc3ccccc3o2)cc1 | inconclusive: 0.0586 µM [inhibitor, full curve, poor fit] |
| COc1ccc(C(=O)Nc2ccc(Cl)cc2C(=O)NCCO)cc1 | inconclusive: 0.0415 µM [inhibitor, full curve, poor fit] |
| CSc1ccc(OCC(=O)Nc2ccc(N3CCOCC3)c(Cl)c2)cc1 | inconclusive: 5.22 µM [inhibitor, single point] |
| C=CCN=C1N[C@@H](c2ccc(Br)cc2)C(C(=O)OC)=C(C)N1Cc1ccccc1 | inconclusive: 13.1 µM [inhibitor, partial curve, poor fit] |
| CCCc1cc(C(=O)OC)c(NC(=O)OCC)s1 | inconclusive: 4.65 µM [inhibitor, partial curve] |

2 records drawn at random from the list so far:

| Structure (SMILES) | Potency |
| --- | --- |
| CCN(CC)CCN(C)C(=O)CCc1nnc(-c2ccc(C)s2)o1 | inconclusive: 10.4 µM [inhibitor, single point] |
| Cc1cc(-c2ccccc2)nc(N2CCC(C(=O)NC(C)C)CC2)n1 | inconclusive: 13.1 µM [inhibitor, single point] |

Quoted from the listing:
Entry of CCOC(=O)C1=C(C)NC(C)=C(C(=O)OCC)C1C(=O)OCC(=O)N(C)C1CCS(=O)(=O)C1 (stereo not drawn) under Potency: inactive
Entry of CNC1(c2nnnn2-c2c(C)cccc2C)CCOC(C)(C)C1 (stereo not drawn) under Potency: inactive
